In patent US20200231668A1 (INTRINSIC LIFESCIENCES, published 2020):
Results are given in words; binding and its absence hold for the method and conditions named. Some binding calls cover weakened binding; strength is not graded here.

Legend:
[1] = target: T1, endogenous human ERFE in serum samples (human) (UniProt Q4G0M1); test: sandwich ELISA on human serum
T1 sequence: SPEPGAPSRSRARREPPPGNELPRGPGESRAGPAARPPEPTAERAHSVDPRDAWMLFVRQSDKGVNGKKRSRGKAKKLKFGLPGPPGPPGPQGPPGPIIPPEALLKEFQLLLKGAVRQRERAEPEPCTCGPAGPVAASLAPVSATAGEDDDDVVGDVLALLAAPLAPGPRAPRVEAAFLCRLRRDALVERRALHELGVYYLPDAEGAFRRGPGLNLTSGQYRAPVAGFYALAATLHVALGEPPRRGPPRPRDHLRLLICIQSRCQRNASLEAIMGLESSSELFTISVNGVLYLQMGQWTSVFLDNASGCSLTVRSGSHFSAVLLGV

[2] = target: T1, endogenous human ERFE in serum samples (human); test: sandwich ELISA on human serum, 2D2-biotin or 2D2-HRP detection, 4C1 capture

B1: monoclonal antibody 2D2 (ATCC Accession Number PTA-123879) (antibody, mouse IgG2a, kappa, V domains shown)
VH: EVQLQQFGPELVKPGGSVKISCKASGYTFTDYNMDWVKQSHGKSLEWIGDFNPNYDSSTYNQKFKGKATLTVDKSSSTAYMELRSLTSEDTAVYYCARGMILYYGNSGSMDYWGQGTSVTVSS
VL: DIQMTQSSSYLSVSLGGRVTITCKASDHINNWLAWYQQKPGNAPRLLISGATSLETGVPSRFSGSGSGKDYTLTIISLQTEDVATYYCQQYWNTPRTFGGGTKLEIKR
binding [1]: binds
binding [2]: binds
